Melanoma cell counts after drug treatment

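Human melanoma cells were exposed to one drug for 72 h in 1,536-well plates and read by automated microscopy after fixing and staining. Each value is the count of nuclei relative to DMSO-treated wells, in %, so that 100 equals the control. Every drug was used at one fixed concentration, the higher of two screened. These are primary screening values without error estimates.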
Only some of the drugs and lines screened are listed, without regard to their results.
An entry leaves out what has no value listed here.
A dash means that no value is listed here.

Drug,G-361,WM3619,WM1745,A2058,COLO 792,LOX IMVI,SK-MEL-30,RVH-421,UACC-62,SK-MEL-28,MeWo,UACC-257
CCN(CC)CCNC(=O)c1c(C)[nH]c(/C=C2\C(=O)Nc3ccc(F)cc32)c1C at 2 µM,85.9,68.3,38.5,78.0,77.9,141,74.1,73.4,31.3,45.6,76.7,75.2
C/C(O)=C(\C#N)C(=O)Nc1cc(Br)ccc1Br at 10 µM,78.6,102,-,94.7,84.3,80.3,118,118,84.8,78.6,90.6,94.4
CC[C@]1(O)C[C@H]2CN(CCc3c([nH]c4ccccc34)[C@@](C(=O)OC)(c3cc4c(cc3OC)N(C=O)[C@H]3[C@@](O)(C(=O)OC)[C@H](OC(C)=O)[C@]5(CC)C=CCN6CC[C@]43[C@@H]65)C2)C1 at 0.0005 µM,102,34.6,99.2,95.0,85.7,76.6,77.9,85.2,89.9,84.9,122,98.7
NCC(=O)Nc1ccc(-n2nc(C(F)(F)F)cc2-c2ccc3c(ccc4ccccc43)c2)cc1 at 5 µM,70.6,81.6,85.9,94.0,70.6,74.5,45.0,69.0,56.8,22.8,91.6,70.8
C=CCNC1=C2C[C@@H](C)C[C@H](OC)[C@H](O)[C@@H](C)/C=C(\C)[C@H](OC(N)=O)[C@@H](OC)/C=C\C=C(/C)C(=O)NC(=CC1=O)C2=O at 0.01 µM,67.2,48.4,46.4,75.7,82.4,130,102,63.7,56.6,98.2,68.4,96.5
N#Cc1c(O)c2c(-c3ccc(-c4ccccc4O)cc3)csc2[nH]c1=O at 10 µM,98.8,83.9,-,105,105,110,103,81.7,98.8,103,99.2,90.0
CC(C)(C)c1cnc(CSc2cnc(NC(=O)C3CCNCC3)s2)o1 at 0.05 µM,75.3,90.0,56.4,76.3,84.6,59.7,88.8,83.7,70.3,62.7,83.4,99.5
Cc1cc(Nc2cc(N3CCN(C)CC3)nc(/C=C/c3ccccc3)n2)n[nH]1 at 0.2 µM,112,99.8,63.4,75.4,121,92.5,104,89.6,69.4,60.0,102,82.8
CC1(C)CCC(c2ccc(Cl)cc2)=C(CN2CCN(c3ccc(C(=O)NS(=O)(=O)c4ccc(N[C@H](CCN5CCOCC5)CSc5ccccc5)c(S(=O)(=O)C(F)(F)F)c4)cc3)CC2)C1 at 2 µM,84.1,93.8,6.1,92.5,11.6,67.4,70.3,51.0,66.6,79.3,86.6,39.7
Cn1cnc2c(F)c(Nc3ccc(Br)cc3Cl)c(C(=O)NOCCO)cc21 at 0.075 µM,69.3,72.5,79.7,93.4,61.0,151,52.2,161,58.5,55.1,66.8,84.1
N.N.[Cl][Pt][Cl] at 8 µM,93.4,98.3,90.2,90.9,89.5,63.4,82.8,89.1,98.4,80.5,77.1,85.3
C=C(c1ccc(C(=O)O)cc1)c1cc2c(cc1C)C(C)(C)CCC2(C)C at 10 µM,81.1,116,103,140,89.7,87.8,119,114,71.3,107,117,98.3
Cn1cc(C2=C(c3cn(C4CCN(Cc5ccccn5)CC4)c4ccccc34)C(=O)NC2=O)c2ccccc21 at 4 µM,77.1,124,78.6,87.5,82.5,118,124,61.8,70.1,117,98.3,85.0
CCCCCCCCCCCC1=C(O)C(=O)C=C(O)C1=O at 6 µM,61.6,72.1,-,88.7,82.3,86.1,95.1,79.8,88.6,65.7,87.8,76.2
Cc1ccc(NC(=O)c2cccc(N(C)C)c2)cc1NC(=O)c1ccc(O)cc1 at 10 µM,93.9,83.2,67.7,94.6,99.1,139,106,87.7,83.8,72.1,87.1,101
Nc1nc(F)nc2c1ncn2[C@@H]1O[C@H](CO)[C@@H](O)[C@@H]1O at 1 µM,91.3,103,94.9,88.5,74.0,117,12.6,105,78.2,4.6,96.7,28.1
CS(=O)(=O)c1ccc(C(=O)Nc2ccc(Cl)c(-c3ccccn3)c2)c(Cl)c1 at 5 µM,88.6,95.5,91.6,95.8,104,73.1,90.5,118,75.9,79.5,114,98.5
CS(=O)(=O)CCNCc1ccc(-c2ccc3ncnc(Nc4ccc(OCc5cccc(F)c5)c(Cl)c4)c3c2)o1 at 4 µM,86.3,70.5,101,106,64.1,104,89.1,131,59.9,74.8,66.1,102
Nc1ncn([C@H]2C[C@H](O)[C@@H](CO)O2)c(=O)n1 at 0.5 µM,79.9,89.3,100,59.2,70.0,61.6,11.6,85.2,92.4,71.9,71.5,77.7
CC(=O)c1c(C)c2cnc(Nc3ccc(N4CCNCC4)cn3)nc2n(C2CCCC2)c1=O at 0.2 µM,66.9,54.4,57.9,136,50.2,75.8,75.4,272,61.6,42.9,53.9,87.0
Cc1cc(Nc2cc(N3CCN(C)CC3)nc(Sc3ccc(NC(=O)C4CC4)cc3)n2)n[nH]1 at 0.03 µM,88.6,64.2,55.6,75.5,67.7,85.8,98.7,80.9,55.7,77.7,79.6,101
CN(c1ncccc1CNc1nc(Nc2ccc3c(c2)CC(=O)N3)ncc1C(F)(F)F)S(C)(=O)=O at 0.4 µM,88.8,65.2,59.0,78.2,70.3,103,76.2,73.1,90.7,56.3,95.2,74.2
CCc1ccc(CCOc2ccc(CC3SC(=O)NC3=O)cc2)nc1 (stereo not drawn) at 10 µM,91.8,103,-,130,94.2,82.7,79.8,83.1,88.9,73.3,104,108
Cc1nc(Nc2ncc(C(=O)Nc3c(C)cccc3Cl)s2)cc(N2CCN(CCO)CC2)n1 at 0.02 µM,72.5,70.6,32.7,63.0,56.2,25.3,110,76.9,88.6,80.0,88.6,61.9
O=C(O)c1ccc2c(c1)nc(Nc1cccc(Cl)c1)c1ccncc12 at 2 µM,73.3,67.7,90.5,83.6,76.3,35.8,75.9,45.7,80.2,58.3,97.3,98.7
CCCCCCCCCCCCCCCCCCOP(=O)([O-])OC1CC[N+](C)(C)CC1 at 2 µM,106,97.3,116,68.0,104,65.3,106,89.6,127,105,96.1,106
Cn1c(Nc2ccc(C(F)(F)F)cc2)nc2cc(Oc3ccnc(-c4ncc(C(F)(F)F)[nH]4)c3)ccc21 at 0.4 µM,21.2,57.2,45.4,63.7,19.0,72.8,65.6,47.2,50.1,32.8,71.0,68.0
O=C(O)C(=O)Nc1sc2c(c1C(=O)O)CCNC2 at 8.33 µM,91.2,87.3,-,112,83.2,109,125,99.1,88.1,96.7,79.1,82.5
O=C(CCCCCCC(=O)Nc1ccccc1)NO at 0.4 µM,80.8,87.9,97.5,111,115,86.1,81.4,105,89.6,66.2,107,57.7
Cn1nnc2c(C(N)=O)ncn2c1=O at 10 µM,83.8,107,104,46.8,97.8,76.5,64.6,91.5,47.7,33.9,90.6,96.8
O=S(=O)(c1ccccc1)N(CC(F)(F)F)c1ccc(C(O)(C(F)(F)F)C(F)(F)F)cc1 at 7 µM,93.1,92.9,-,110,82.6,82.3,86.2,9.5,82.7,94.0,85.5,79.6
COc1ccc(COc2ccc(Cc3cnc(N)nc3N)cc2OC)cc1 at 5 µM,88.1,83.4,-,118,102,102,109,114,85.5,120,91.4,95.7
O=C(/C=C/c1cccnc1)NCCCCC1CCN(C(=O)c2ccccc2)CC1 at 0.05 µM,3.5,73.7,113,113,32.1,73.7,109,114,110,132,136,105
O=C1NC(=O)/C(=C/c2ccc(-c3ccc(F)cc3O)o2)S1 at 5 µM,94.4,87.5,-,88.3,81.6,97.9,88.6,136,73.3,112,92.1,101
CCCCCCCCc1ccc(CCC(N)(CO)CO)cc1 at 10 µM,0.6,2.9,1.2,5.1,0.9,16.1,8.8,2.7,12.7,1.4,21.1,73.7
C[C@@H](N)c1ccc(C(=O)Nc2ccnc3[nH]ccc23)cc1 at 2 µM,102,131,60.5,76.3,65.5,72.3,85.1,64.9,77.4,105,101,80.6

The last 4 entries again:

- O=C(/C=C/c1cccnc1)NCCCCC1CCN(C(=O)c2ccccc2)CC1 at 0.05 µM | G-361: 3.5; WM3619: 73.7; WM1745: 113; A2058: 113; COLO 792: 32.1; LOX IMVI: 73.7; SK-MEL-30: 109; RVH-421: 114; UACC-62: 110; SK-MEL-28: 132; MeWo: 136; UACC-257: 105
- O=C1NC(=O)/C(=C/c2ccc(-c3ccc(F)cc3O)o2)S1 at 5 µM | G-361: 94.4; WM3619: 87.5; A2058: 88.3; COLO 792: 81.6; LOX IMVI: 97.9; SK-MEL-30: 88.6; RVH-421: 136; UACC-62: 73.3; SK-MEL-28: 112; MeWo: 92.1; UACC-257: 101
- CCCCCCCCc1ccc(CCC(N)(CO)CO)cc1 at 10 µM | G-361: 0.6; WM3619: 2.9; WM1745: 1.2; A2058: 5.1; COLO 792: 0.9; LOX IMVI: 16.1; SK-MEL-30: 8.8; RVH-421: 2.7; UACC-62: 12.7; SK-MEL-28: 1.4; MeWo: 21.1; UACC-257: 73.7
- C[C@@H](N)c1ccc(C(=O)Nc2ccnc3[nH]ccc23)cc1 at 2 µM | G-361: 102; WM3619: 131; WM1745: 60.5; A2058: 76.3; COLO 792: 65.5; LOX IMVI: 72.3; SK-MEL-30: 85.1; RVH-421: 64.9; UACC-62: 77.4; SK-MEL-28: 105; MeWo: 101; UACC-257: 80.6

Source: doi:10.1371/journal.pone.0140310, primary screening data, rounded.